PubChem BioAssay AID1259306 | Sanger Institute, 2017
Here is a random part of 794 deposited reagents. Of all reagents, 11 (1.4%) were called active. 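Calls reflect knock-down alone; synergy scores play no part, so knock-downs synergising with a drug can be called no change.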 A number with no mark means an inactive call. No viability above 1 is reported: the scale is capped. The record does not give: the amount of reagent, the time to read-out.

- Assay: 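Kinase-wide siRNA screen for partners of targeted drugs in colorectal cancer cells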 (primary screen)
- Cells: human SNU-C5 colorectal cancer cells
- Knock-down reagent: siRNA pool against human genes
- Challenge: DMSO vehicle alone, or one anchor drug: BYL719 at 1 µM, cetuximab at 5 µg/ml or trametinib at 10 nM, given 24 h into the assay
- Measurement: 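Replicate-averaged viability against non-targeting pool control, given as fraction and robust z-score; separate synergy scores for BYL719, cetuximab and trametinib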
- Reading the numbers: robust z-score, knock-down alone and viability, knock-down alone: higher = more viable cells; synergy score with BYL719: higher = stronger synthetic lethality with BYL719; synergy score with cetuximab: higher = stronger synthetic lethality with cetuximab; synergy score with trametinib: higher = stronger synthetic lethality with trametinib
- Call rule: 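Called essential when the robust z-score for knock-down alone is below -3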
- Meaning of the calls: active = essential (knock-down alone); inactive = no change alone

gene knocked down | robust z-score, knock-down alone | viability, knock-down alone | synergy score with BYL719 | synergy score with cetuximab | synergy score with trametinib
CHEK1 (checkpoint kinase 1) | -1.77 | 0.62 | 0.00823 | -0.0441 | -0.0389
SPEG (striated muscle enriched protein kinase) | 0.107 | 0.878 | -0.0389 | 0.0323 | -0.275
PRP4K (pre-mRNA processing factor kinase PRP4K) | 0.844 | 0.98 | -0.02 | 0.124 | 0.0182
MYLK (myosin light chain kinase) | -1.75 | 0.623 | -0.0316 | -0.0597 | -0.123
MAPK9 (mitogen-activated protein kinase 9) | 0.989 | 1 | 0 | 0 | -0.128
MED24 (mediator complex subunit 24) | 0.989 | 1 | 0.19 | 0 | -0.0941
ADCK5 (aarF domain containing kinase 5) | 0.843 | 0.98 | 0.0639 | 0.255 | 0.105
SF3B1 (splicing factor 3b subunit 1) | -2.55 | 0.512 | 0.0377 | -0.0584 | -0.0341
HIPK1 (homeodomain interacting protein kinase 1) | 0.48 | 0.93 | 0.0491 | 0.169 | -0.0638
PRKCB (protein kinase C beta) | 0.829 | 0.978 | 0.129 | 0.177 | 0.1
PRKAR1A | 0.989 | 1 | 0.127 | 0 | -0.116
BLK (BLK proto-oncogene, Src family tyrosine kinase) | 0.989 | 1 | 0.148 | 0 | -0.231
TBK1 (TANK binding kinase 1) | -0.56 | 0.787 | 0.0107 | -0.063 | 0.122
EPHB2 (EPH receptor B2) | -1.28 | 0.688 | -0.132 | 0.103 | -0.281
CAMK1 (calcium/calmodulin dependent protein kinase I) | -0.0854 | 0.852 | 0.0368 | -0.148 | -0.0861
STK25 (serine/threonine kinase 25) | 0.504 | 0.933 | 0.211 | 0.089 | 0.041
KDR (kinase insert domain receptor) | 0.622 | 0.949 | 0.0916 | -0.0506 | -0.0576
STK32A (serine/threonine kinase 32A) | 0.989 | 1 | 0 | 0.0645 | -0.0742
JAK3 (Janus kinase 3) | 0.989 | 1 | 0 | 0 | -0.149
BRSK2 (BR serine/threonine kinase 2) | 0.316 | 0.907 | -0.0476 | -0.0927 | -0.124

A portion of the results above:
gene knocked down | robust z-score, knock-down alone | viability, knock-down alone | synergy score with BYL719 | synergy score with cetuximab | synergy score with trametinib
MAPK9 (mitogen-activated protein kinase 9) | 0.989 | 1 | 0 | 0 | -0.128
MED24 (mediator complex subunit 24) | 0.989 | 1 | 0.19 | 0 | -0.0941
